The target in this test is AGO2 (human, endogenous) (human (endogenous in HCT116)) (UniProt Q9UKV8). Put plainly: SEC; total HCT116 lysates (no fusion protein, T6B or T6B^Mut) on Superose 6 10/300 GL in SEC buffer; fractions TCA-precipitated and immunoblotted for AGO2, TNRC6A, T6B, PABP1. (In general: SEC sorts molecules by how far they enter the pores of the column.)

By UniProt entry, the sequences of proteins in these tests, tags left out.
UniProt Q9UKV8: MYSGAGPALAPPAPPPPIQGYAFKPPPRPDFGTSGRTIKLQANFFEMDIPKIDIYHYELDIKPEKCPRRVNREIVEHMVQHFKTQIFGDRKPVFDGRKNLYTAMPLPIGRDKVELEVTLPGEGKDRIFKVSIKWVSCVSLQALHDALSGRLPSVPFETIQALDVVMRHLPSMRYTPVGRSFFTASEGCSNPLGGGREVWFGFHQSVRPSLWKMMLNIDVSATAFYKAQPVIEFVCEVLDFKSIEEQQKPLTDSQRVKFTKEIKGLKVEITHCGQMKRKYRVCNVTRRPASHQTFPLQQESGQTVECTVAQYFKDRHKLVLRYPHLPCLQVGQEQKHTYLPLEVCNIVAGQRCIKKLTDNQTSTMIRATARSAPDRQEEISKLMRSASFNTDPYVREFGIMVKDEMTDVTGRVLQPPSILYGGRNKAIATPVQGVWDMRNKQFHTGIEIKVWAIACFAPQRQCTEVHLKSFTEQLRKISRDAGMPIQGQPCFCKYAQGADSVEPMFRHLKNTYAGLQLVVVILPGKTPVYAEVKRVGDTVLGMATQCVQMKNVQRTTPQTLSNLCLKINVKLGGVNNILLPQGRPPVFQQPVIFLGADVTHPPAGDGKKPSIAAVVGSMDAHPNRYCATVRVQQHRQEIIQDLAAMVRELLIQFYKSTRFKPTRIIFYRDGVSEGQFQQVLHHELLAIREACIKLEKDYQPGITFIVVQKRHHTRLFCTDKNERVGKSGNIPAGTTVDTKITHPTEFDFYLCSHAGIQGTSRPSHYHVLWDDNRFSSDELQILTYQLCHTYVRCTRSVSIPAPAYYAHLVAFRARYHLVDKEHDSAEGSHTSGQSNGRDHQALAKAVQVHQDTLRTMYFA
UniProt Q8NDV7: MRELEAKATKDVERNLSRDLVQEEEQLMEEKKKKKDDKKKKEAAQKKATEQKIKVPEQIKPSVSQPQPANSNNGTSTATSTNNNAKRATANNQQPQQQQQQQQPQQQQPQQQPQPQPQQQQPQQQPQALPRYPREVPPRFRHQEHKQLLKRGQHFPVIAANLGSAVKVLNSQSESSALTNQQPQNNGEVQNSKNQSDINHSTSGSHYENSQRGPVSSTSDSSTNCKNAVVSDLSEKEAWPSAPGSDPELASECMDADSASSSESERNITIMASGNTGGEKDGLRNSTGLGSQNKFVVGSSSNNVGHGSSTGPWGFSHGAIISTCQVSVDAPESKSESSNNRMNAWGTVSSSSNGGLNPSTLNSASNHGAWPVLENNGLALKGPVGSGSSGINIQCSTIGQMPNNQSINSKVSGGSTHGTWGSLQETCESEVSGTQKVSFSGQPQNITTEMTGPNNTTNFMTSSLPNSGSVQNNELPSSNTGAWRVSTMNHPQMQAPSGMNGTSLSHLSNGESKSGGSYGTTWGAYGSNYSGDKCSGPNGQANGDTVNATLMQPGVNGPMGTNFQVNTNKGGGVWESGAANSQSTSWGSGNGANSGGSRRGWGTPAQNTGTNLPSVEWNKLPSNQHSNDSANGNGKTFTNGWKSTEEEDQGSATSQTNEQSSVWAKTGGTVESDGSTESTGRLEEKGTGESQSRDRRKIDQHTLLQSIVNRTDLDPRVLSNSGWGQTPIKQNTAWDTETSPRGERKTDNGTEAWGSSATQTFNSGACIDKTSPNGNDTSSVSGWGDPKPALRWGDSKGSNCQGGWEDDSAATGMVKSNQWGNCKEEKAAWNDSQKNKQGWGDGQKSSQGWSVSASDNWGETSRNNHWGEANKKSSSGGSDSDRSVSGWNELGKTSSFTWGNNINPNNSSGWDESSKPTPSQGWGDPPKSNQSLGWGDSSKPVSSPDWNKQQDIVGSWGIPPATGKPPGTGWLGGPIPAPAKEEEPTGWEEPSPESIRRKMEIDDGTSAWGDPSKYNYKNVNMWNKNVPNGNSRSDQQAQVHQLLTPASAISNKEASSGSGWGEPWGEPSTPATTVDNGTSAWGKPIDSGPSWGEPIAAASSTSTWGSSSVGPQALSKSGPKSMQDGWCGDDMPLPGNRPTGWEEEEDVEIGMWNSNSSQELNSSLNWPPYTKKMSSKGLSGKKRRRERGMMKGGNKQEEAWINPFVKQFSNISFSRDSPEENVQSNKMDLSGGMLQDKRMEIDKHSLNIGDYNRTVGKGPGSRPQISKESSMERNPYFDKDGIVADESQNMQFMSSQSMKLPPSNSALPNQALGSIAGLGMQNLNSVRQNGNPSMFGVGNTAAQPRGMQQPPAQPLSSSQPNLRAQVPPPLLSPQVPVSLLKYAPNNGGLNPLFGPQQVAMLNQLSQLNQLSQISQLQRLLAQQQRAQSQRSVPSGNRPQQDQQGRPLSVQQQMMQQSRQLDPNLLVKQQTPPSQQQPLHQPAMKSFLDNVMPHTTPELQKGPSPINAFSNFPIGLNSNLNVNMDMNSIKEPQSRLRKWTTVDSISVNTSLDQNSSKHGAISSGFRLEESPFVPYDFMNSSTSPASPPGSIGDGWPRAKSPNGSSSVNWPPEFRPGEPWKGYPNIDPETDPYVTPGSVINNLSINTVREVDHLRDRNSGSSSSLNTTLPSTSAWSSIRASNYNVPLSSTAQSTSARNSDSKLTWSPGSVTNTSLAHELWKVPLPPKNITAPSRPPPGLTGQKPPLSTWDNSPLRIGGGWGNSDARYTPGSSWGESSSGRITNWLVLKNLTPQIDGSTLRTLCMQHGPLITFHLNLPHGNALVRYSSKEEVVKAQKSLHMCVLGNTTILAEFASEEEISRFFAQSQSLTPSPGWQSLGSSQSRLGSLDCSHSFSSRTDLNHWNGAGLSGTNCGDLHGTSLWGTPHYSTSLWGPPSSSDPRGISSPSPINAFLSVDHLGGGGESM

These are yes or no findings as the source states them, for the method shown. Some binding calls cover weakened binding; strength is not graded here.

“TNRC6A (human, endogenous) (from UniProt Q8NDV7 1-1962)”: the binding result is “binds”.
